According to patent publication US20090018093:
For at least one entry, the source does not settle the construct or the ends of the probe. No signal at the amounts used counts as a negative.

Chains of the proteins cited; added tags and fusions are not shown. Chains listed by the source or under a name are the forms on record and can include a tag or linker.
Immunoglobulin E (IgE) (Homo sapiens), one chain, as listed by the source: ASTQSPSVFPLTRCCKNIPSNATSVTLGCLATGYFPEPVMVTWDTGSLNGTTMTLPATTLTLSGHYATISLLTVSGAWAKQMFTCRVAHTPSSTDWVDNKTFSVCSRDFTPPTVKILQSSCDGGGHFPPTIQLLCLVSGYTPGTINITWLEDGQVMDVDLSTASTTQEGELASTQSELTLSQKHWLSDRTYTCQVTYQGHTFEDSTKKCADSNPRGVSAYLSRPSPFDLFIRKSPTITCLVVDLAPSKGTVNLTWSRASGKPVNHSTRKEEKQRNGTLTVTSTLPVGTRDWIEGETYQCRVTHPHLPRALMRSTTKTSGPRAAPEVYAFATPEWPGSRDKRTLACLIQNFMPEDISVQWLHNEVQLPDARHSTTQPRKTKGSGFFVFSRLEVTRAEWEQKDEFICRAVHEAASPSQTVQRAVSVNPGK

tested on: Immunoglobulin E (IgE) (Homo sapiens); experiment: filter binding; details: 2'-F C and U; no significant binding; purified native protein

Sequence | binding result
GGGAAAAGCGAAUCAUACACAAGAGAGUGGAGGAGGUAUGUAUGGUUUGUGCGUCUGGUGCGGUGCUCCGCCAGAGACCAACCGAGAA [rRfY clone SEQ 22] | no binding

same assay, conditions: 2'-OMe C,U; deoxy A,G; no significant binding up to 300 nM IgE with tRNA, ssDNA; purified native protein

Sequence | binding result
GGGAGAGGAGAGAACGUUCUACAGGAGUGGAGCUACAGAGAGGGUUAGGGGUCGCUGUCGAUCGAUCGAUCGAUG [dRmY clone SEQ 36] | no binding
GGGAGAGGAGAGAACGUUCUACAGGGAGAGAGUGUUGAGUGAAGAGGAGGAGUCGCUGUCGAUCGAUCGAUCGAUG [dRmY clone SEQ 40] | no binding
GGGAGAGGAGAGAACGUUCUACGAGGUGAGGGUCUACAAUGGAGGGAUGGUCGCUGUCGAUCGAUCGAUCGAUG [dRmY clone SEQ 30] | no binding
GGGAGAGGAGAGAACGUUCUACGAGGUGUAGGGAUAGAGGGGUGUAGGUAACGCUGUCGAUCGAUCGAUCGAUG [dRmY clone SEQ 35] | no binding
GGGAGAGGAGAGAACGUUCUACGAGUGGAUAGGGAAGAAGGGGAGUAGUCACGCUGUCGAUCGAUCGAUCGAUG [dRmY clone SEQ 45] | no binding
GGGAGAGGAGAGAACGUUCUACGAUUAGCAGGGAGGGAGAGUGCGAAGAGGACGCUGUCGAUCGAUCGAUCGAUG [dRmY clone SEQ 28] | no binding
GGGAGAGGAGAGAACGUUCUACGGAUGUUGGGAGUGAUAGAAGGAAGGGGAGCGCUGUCGAUCGAUCGAUCGAUG [dRmY clone SEQ 37] | no binding
GGGAGAGGAGAGAACGUUCUACGGGAUGGGUAGUUGGAUGGAAAUGGGAACGCUGUCGAUCGAUCGAUCGAUG [dRmY clone SEQ 34] | no binding
GGGAGAGGAGAGAACGUUCUACGGGGUUACGUCGCACGAUACAUGCAUUCAUCGCUGUCGAUCGAUCGAUCGAUG [dRmY clone SEQ 48] | no binding
GGGAGAGGAGAGAACGUUCUACGUAUUAGGGGGGAAGGGGAGGAAUAGAUCACGCUGUCGAUCGAUCGAUCGAUG [dRmY clone SEQ 39] | no binding
GGGAGAGGAGAGAACGUUCUACUAGCGAGGAGGGGUUUUCUAUUUUUGCGAUCGCUGUCGAUCGAUCGAUCGAUG [dRmY clone SEQ 49] | no binding
GGGAGAGGAGAGAACGUUCUACUGGGGGGCGUGUUCAUUAGCAGCGUCGUGUCGCUGUCGAUCGAUCGAUCGAUG [dRmY clone SEQ 32] | no binding
GGGAGAGGAGAGAACGUUCUACUUGGGGUGGAAGGAGUAAGGGAGGUGCUGAUCGCUGUCGAUCGAUCGAUCGAUG [dRmY clone SEQ 38] | no binding

same assay, conditions: 2'-OMe at 1-5,33-37; 3' idT [2'-OMe: 1-5,33-37; 38 = 3' inverted dT]; No Binding; DPBS Mg/Ca, BSA; purified native protein; single-stranded DNA; letters built from the parent sequence and the stated change

Sequence | binding result
GGGGCTACTTTATCCGTTCCTCCTAGTGGGTAGCCCCT [ARC1305] | no binding

same assay, conditions: dRmY: 2'-deoxy A,G; 2'-OMe C,U; N.B.; purified native protein; variant of ARC1991

Sequence | binding result
UUCUGGGGACCCAUGGGGGAA [ARC441] | no binding

same assay, conditions: dRmY: 2'-deoxy A,G; 2'-OMe C,U; N.B.; purified native protein; variant of ARC1994

Sequence | binding result
GCCUGGGGAACCAUGGGGGGC [ARC447] | no binding

same assay, conditions: dRmY: 2'-deoxy A,G; 2'-OMe C,U; no significant binding; purified native protein; variant of ARC445

Sequence | binding result
AAGCCUGGGGACCCAUGGGGGGGCU [ARC670] | no binding
AGCCUGGGGACCCAUGGGGGCU [ARC664] | no binding
AGCCUGGGGACCCAUGGGGGGUGGU [ARC667] | no binding
AGCCUGGUGGCCCAUGGGGUGCU [ARC666] | no binding
AGCUGUGGAGUCGUGUGGGGCU [ARC669] | no binding
AGUCUGGGGACAGAUGGAUGGCU [ARC668] | no binding
CGCCUGGGGACCCAGGGGGGGCU [ARC665] | no binding

same assay, conditions: h-IgE titration 30 pM-30 nM; purified native protein; single-stranded DNA

Sequence | binding result
GGGGCACGTTTATCCGTCCCTCCTAGTGGCGTGCCCC [D17.4] | binds

same assay, conditions: no binding at 5 and 50 nM h-IgE; purified native protein; single-stranded DNA; variant of D17.4

Sequence | binding result
GGGGCACGTTTACAGTCCCTCCTTATCGCCTCCC [DNA clone SEQ 137] | no binding
GGGGCACGTTTACAGTCCCTCCTTATCGCCTCCC [DNA clone SEQ 138] | no binding
GGGGTACATTTATCCGTCCCTCCTAGTGGCATGCCCC [DNA clone SEQ 125] | no binding
